In publication PMC9102066, “Cloning and Functional Characterization of Dog OCT1 and OCT2: Another Step in Exploring Species Differences in Organic Cation Transporters” (International Journal of Molecular Sciences, 2022):

What was measured:
human OCT1 = target: T1, human OCT1 (Homo sapiens, UniProt O15245); assay: Uptake in HEK293 cells stably overexpressing human OCT1; type: in vitro ADME; settings: intrinsic clearance = vmax divided by KM for each experiment
T1 construct: expressed in transfected cells; host or cells: HEK293 (Flp-In system)
T1 sequence (O15245 1-554): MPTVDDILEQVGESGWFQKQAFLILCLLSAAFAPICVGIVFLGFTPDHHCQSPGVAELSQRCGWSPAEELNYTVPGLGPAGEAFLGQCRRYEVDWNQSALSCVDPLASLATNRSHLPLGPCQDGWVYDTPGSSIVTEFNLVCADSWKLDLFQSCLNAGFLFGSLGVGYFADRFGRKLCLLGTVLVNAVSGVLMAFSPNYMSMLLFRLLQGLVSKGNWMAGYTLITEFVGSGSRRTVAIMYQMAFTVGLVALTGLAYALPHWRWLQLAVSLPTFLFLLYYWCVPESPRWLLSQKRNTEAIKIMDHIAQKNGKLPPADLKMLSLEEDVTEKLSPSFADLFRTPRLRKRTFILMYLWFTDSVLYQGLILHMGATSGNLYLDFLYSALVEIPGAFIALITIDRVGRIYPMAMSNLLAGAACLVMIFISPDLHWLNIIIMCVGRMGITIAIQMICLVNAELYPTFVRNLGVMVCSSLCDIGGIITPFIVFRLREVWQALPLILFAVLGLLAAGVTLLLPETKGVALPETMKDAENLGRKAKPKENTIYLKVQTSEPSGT
Description: (§1) Cells were passaged twice a week.
(§2) Intracellular substrate concentrations were quantified using LC-MS/MS.

human OCT2 = target: T2, human OCT2 (Homo sapiens, UniProt O15244); assay: Uptake in HEK293 cells stably overexpressing human OCT2; type: in vitro ADME; settings: intrinsic clearance = vmax divided by KM for each experiment
T2 construct: expressed in transfected cells; host or cells: HEK293 (Flp-In system)
T2 sequence (O15244 1-555): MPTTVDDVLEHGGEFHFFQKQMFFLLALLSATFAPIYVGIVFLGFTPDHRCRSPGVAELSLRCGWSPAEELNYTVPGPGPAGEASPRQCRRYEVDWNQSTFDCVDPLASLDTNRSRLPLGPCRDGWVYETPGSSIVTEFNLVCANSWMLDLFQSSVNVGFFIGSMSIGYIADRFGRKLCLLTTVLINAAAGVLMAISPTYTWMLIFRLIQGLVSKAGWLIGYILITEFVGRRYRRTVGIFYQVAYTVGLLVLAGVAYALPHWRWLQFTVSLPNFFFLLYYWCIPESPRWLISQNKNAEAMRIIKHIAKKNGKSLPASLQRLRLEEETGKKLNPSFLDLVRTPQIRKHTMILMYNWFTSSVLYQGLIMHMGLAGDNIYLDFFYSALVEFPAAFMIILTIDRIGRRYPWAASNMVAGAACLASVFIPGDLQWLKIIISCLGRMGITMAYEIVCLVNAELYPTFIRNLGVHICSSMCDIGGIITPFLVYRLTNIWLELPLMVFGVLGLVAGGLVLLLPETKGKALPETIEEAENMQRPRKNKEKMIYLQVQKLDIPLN
Description: as §1, §2

mouse OCT1 = target: T3, mouse OCT1 (Mus musculus, UniProt O08966); assay: Uptake in HEK293 cells stably overexpressing mouse OCT1; type: in vitro ADME
T3 construct: expressed in transfected cells; host or cells: HEK293 (Flp-In system)
T3 sequence (O08966 1-556): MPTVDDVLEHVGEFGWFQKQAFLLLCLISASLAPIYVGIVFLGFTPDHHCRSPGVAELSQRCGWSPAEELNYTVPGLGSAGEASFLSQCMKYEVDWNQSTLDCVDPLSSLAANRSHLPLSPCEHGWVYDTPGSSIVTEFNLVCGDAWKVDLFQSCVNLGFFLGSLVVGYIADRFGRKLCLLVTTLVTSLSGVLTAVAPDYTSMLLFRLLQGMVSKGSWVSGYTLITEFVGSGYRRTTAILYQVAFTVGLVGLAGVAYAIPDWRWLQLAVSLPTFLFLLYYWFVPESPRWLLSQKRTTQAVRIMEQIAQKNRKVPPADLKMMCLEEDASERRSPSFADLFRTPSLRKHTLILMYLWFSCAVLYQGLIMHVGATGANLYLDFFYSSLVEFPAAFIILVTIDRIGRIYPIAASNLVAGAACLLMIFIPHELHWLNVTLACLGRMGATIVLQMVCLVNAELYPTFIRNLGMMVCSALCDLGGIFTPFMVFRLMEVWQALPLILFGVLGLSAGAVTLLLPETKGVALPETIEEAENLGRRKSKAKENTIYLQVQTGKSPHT
Description: as §1, §2

dog OCT1 = assay: Uptake in HEK293 cells stably overexpressing dog OCT1; settings: for CLint ± SEM, dOCT1: intrinsic clearance = vmax divided by KM for each experiment
Description: The total uptake is shown for the overexpressing and control cells (left hand side). OCT1-mediated uptake (right hand side) was calculated by subtracting the uptake of control cells (pcDNA5) from the uptake of OCT1-overexpressing cells. The means and standard errors of the means are shown for at least three independent experiments.
For generation and characterization, see the Supplementary Methods, Figure S7, and [29, 47]. Cells were cultured in Dulbecco’s Modified Eagle’s Medium (DMEM) supplemented with 10% FBS, 100 U/mL penicillin, and 100 µg/mL streptomycin at 37 °C and 5% CO2. Cells were passaged twice a week.
At 48 h prior to the experiment, 6 × 10^5 cells were seeded per well in 12-well plates pre-coated with poly-D-lysine.
Cellular uptake experiments were performed at 37 °C and pH 7.4 using Hanks’ Buffered Salt Solution (HBSS) supplemented with 10 mM HEPES (referred to as HBSS+ in the following). Cells were washed with 1 mL pre-warmed (37 °C) HBSS+ and uptake was initiated by adding 400 µL of pre-warmed HBSS+ containing the substrate. Uptake was allowed for exactly 2 min and stopped by adding 2 mL ice-cold HBSS+. Cells were washed twice with 2 mL ice-cold HBSS+ then lysed with 80% acetonitrile supplemented with internal standard. The intracellularly accumulated substrate concentrations were measured using LC-MS/MS as described in the following and normalized to the amount of total protein in the samples as measured using the bicinchoninic acid assay.
Intracellular substrate concentrations were quantified using LC-MS/MS. […] The pellet was reconstituted with 200 µL 0.1% formic acid and between 5 and 10 µL was injected into the LC-MS/MS system (Table S2).
An API4000 QTRAP tandem mass spectrometer with ESI interface (AB SCIEX, Darmstadt, Germany) coupled to a Shimadzu Nexera X2 UHPLC system with LC 30AD pumps and SiL 30AC autosampler (Shimadzu, Duisburg, Germany) was used for analysis.
Intrinsic clearance CLint was calculated by dividing vmax by KM for each experiment. Kinetic parameters were compared between OCT1 orthologs using an ANOVA followed by Tukey’s honestly significant difference post hoc comparisons in SPSS Statistics version 28 (SPSS Inc., IBM, Chicago, IL, USA).

dog OCT2 = assay: Uptake in HEK293 cells stably overexpressing dog OCT2; type: in vitro ADME
Description: Figure 6 Comparative characterization of substrate uptake between dog and human OCT2 orthologs.
as §1, §2

[1] = OCT1-mediated uptake, HEK293, 2 min, 37 °C, pH 7.4, control cells subtracted
[2] = intrinsic clearance = vmax divided by KM for each experiment

Question: How did the “CLint ± SEM, hOCT1” value (human OCT1) turn out when `CC(C)[N+]1(C)[C@@H]2CC[C@H]1C[C@@H](OC(=O)C(CO)c1ccccc1)C2` (some centres unmarked) [Ipratropium, Ipratropium bromide] was run?
Answer: 75.7 ± 6.33 µL × min^−1 × mg Protein^−1

Question: And the “CLint ± SEM, hOCT2” value (human OCT2)?
Answer: 477 ± 31.9 µL × min^−1 × mg Protein^−1

Question: What about the “vmax ± SEM, mOCT1” value (mouse OCT1; [1]) of the same compound?
Answer: 309 ± 18.8 pmol × min^−1 × mg Protein^−1

Question: And the “CLint ± SEM, mOCT1” value (mouse OCT1; [2])?
Answer: 83.6 ± 10.4 µL × min^−1 × mg Protein^−1

Question: What about the “vmax ± SEM, dOCT1” value (dog OCT1; [1]) of the same compound?
Answer: 113 ± 1.43 pmol × min^−1 × mg Protein^−1

Question: And the Km at 2 min (dog OCT1; dog, pH 7.4)?
Answer: 1.02 ± 0.2 µM

Question: And the “CLint ± SEM, dOCT1” value (dog OCT1)?
Answer: 122 ± 28.1 µL × min^−1 × mg Protein^−1

Question: What about the “CLint ± SEM, dOCT1” value (dog OCT1; listed as ipratropium) of the same compound?
Answer: 80.5 µL × min^−1 × mg Protein^−1

Question: What about the “vmax ± SEM, dOCT2” value (dog OCT2; OCT2-mediated uptake, HEK293, 2 min, 37 °C, pH 7.4, control cells subtracted) of the same compound?
Answer: 93.2 ± 12.6 pmol × min^−1 × mg Protein^−1

Question: What about the Km at 2 min (dog OCT2; dog, pH 7.4, OCT2-mediated uptake, HEK293, 2 min, Michaelis–Menten fit, read-out: KM ± SEM, dOCT2) of the same compound?
Answer: 0.35 ± 0.02 µM

Question: What about the “CLint ± SEM, dOCT2” value (dog OCT2; [2]) of the same compound?
Answer: 265 ± 35.3 µL × min^−1 × mg Protein^−1
